The supplement of paper PMC4604168 (melanoma cell lines)
Some of the results follow. Single values are uncertain, as repeats are few or missing.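 Cells were imaged in 1,536-well plates, and nuclei stained with an antibody against cleaved PARP were counted against all DNA-stained nuclei to give the apoptosis fraction. Screening doses were chosen to leave most cells alive, and resting and induced cleaved-PARP levels differ strongly between cell lines.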

What was measured:
Test in all cases: cleaved PARP positive nuclei fraction relative to DMSO control; melanoma cells; higher = more apoptosis
Details in all cases: library dose: low library concentration; 72 h
[1] = tested on: 501Mel
[2] = tested on: A101D
[3] = tested on: A2058
[4] = tested on: A375
[5] = tested on: C32
[6] = tested on: CBRC008 (line from a melanoma biopsy)
[7] = tested on: CBRC014 (line from a melanoma biopsy)
[8] = tested on: CBRC016 (line from a melanoma biopsy)
[9] = tested on: CBRC017 (line from a melanoma biopsy)
[10] = tested on: CBRC034 (line from a melanoma biopsy)
[11] = tested on: COLO792
[12] = tested on: COLO800
[13] = tested on: COLO829
[14] = tested on: G361
[15] = tested on: IPC-298
[16] = tested on: IST-MEL1
[17] = tested on: LB2518-MEL
[18] = tested on: LOXIMVI
[19] = tested on: MEL-HO

Compound | cleaved PARP positive nuclei fraction [1] [%] | cleaved PARP positive nuclei fraction [2] [%] | cleaved PARP positive nuclei fraction [3] [%] | cleaved PARP positive nuclei fraction [4] [%] | cleaved PARP positive nuclei fraction [5] [%] | cleaved PARP positive nuclei fraction [6] [%] | cleaved PARP positive nuclei fraction [7] [%] | cleaved PARP positive nuclei fraction [8] [%] | cleaved PARP positive nuclei fraction [9] [%] | cleaved PARP positive nuclei fraction [10] [%] | cleaved PARP positive nuclei fraction [11] [%] | cleaved PARP positive nuclei fraction [12] [%] | cleaved PARP positive nuclei fraction [13] [%] | cleaved PARP positive nuclei fraction [14] [%] | cleaved PARP positive nuclei fraction [15] [%] | cleaved PARP positive nuclei fraction [16] [%] | cleaved PARP positive nuclei fraction [17] [%] | cleaved PARP positive nuclei fraction [18] [%] | cleaved PARP positive nuclei fraction [19] [%]
NC(=O)c1ccc(N(C(N)=O)c2c(F)cccc2F)nc1-c1ccc(F)cc1F + CN(c1ncccc1CNc1nc(Nc2ccc3c(c2)CC(=O)N3)ncc1C(F)(F)F)S(C)(=O)=O [PF562271] (first compound 0.4 µM, partner dose 0.08 µM) | 173 | 140 | 150 | 164 | 82.2 | 41.9 | 127 | 83.8 | 139 | 88.2 | 123 | 99 | 206 | 52.8 | 46.8 | 129 | 108 | 206 | 215
C[C@@H](N)c1ccc(C(=O)Nc2ccnc3[nH]ccc23)cc1 + Nc1cccc2c1CN(C1CCC(=O)NC1=O)C2=O [lenalidomide] (first compound 0.4 µM, partner dose 1 µM) | 69.8 | 82.6 | 130 | 89 | 93.3 | 131 | 86.3 | 266 | 95.8 | 243 | 198 | 169 | 122 | 107 | 42.6 | 215 | 122 | 272 | 91
Cn1sc(=O)n(Cc2ccccc2)c1=O + CCN(CC)CCNC(=O)c1c(C)[nH]c(/C=C2\C(=O)Nc3ccc(F)cc32)c1C [sunitinib] (first compound 0.4 µM, partner dose 0.4 µM) | 74.4 | 93.2 | 162 | 225 | 24.9 | 45.3 | 81.1 | 45.4 | 77.5 | 96 | 35.2 | 40.7 | 92.9 | 125 | 75.1 | 29.6 | 79 | 28.8 | 73.4
CCN(CC)CCNC(=O)c1c(C)[nH]c(/C=C2\C(=O)Nc3ccc(F)cc32)c1C [sunitinib] + COc1ccc(Cl)c(Nc2nc3ccccc3nc2NS(=O)(=O)c2cccc(NC(=O)C(C)(C)N)c2)c1 [XL147] (first compound 0.4 µM, partner dose 0.8 µM) | 448 | 265 | 142 | 187 | 107 | 172 | 85.3 | 154 | 115 | 34.4 | 153 | 190 | 91.2 | 151 | 87.7 | 141 | 62.6 | 47.8 | 137
Cn1sc(=O)n(Cc2ccccc2)c1=O + COc1ccc(Cl)c(Nc2nc3ccccc3nc2NS(=O)(=O)c2cccc(NC(=O)C(C)(C)N)c2)c1 [XL147] (first compound 0.4 µM, partner dose 0.8 µM) | 71 | 72 | 146 | 102 | 78.1 | 225 | 106 | 281 | 157 | 116 | 36.3 | 102 | 82.8 | 108 | 47.2 | 32 | 112 | 56.2 | 47.4
CS(=O)(=O)c1ccc(C(=O)Nc2ccc(Cl)c(-c3ccccn3)c2)c(Cl)c1 [vismodegib] + CNC(=O)c1cc(Oc2ccc(NC(=O)Nc3ccc(Cl)c(C(F)(F)F)c3)cc2)ccn1 [sorafenib] (first compound 1 µM, partner dose 0.4 µM) | 302 | 277 | 87.1 | 76.8 | 70.2 | 74.9 | 102 | 68.2 | 97.7 | 26.6 | 64.9 | 165 | 90.2 | 131 | 60.9 | 143 | 108 | 130 | 179
CN(c1ncccc1CNc1nc(Nc2ccc3c(c2)CC(=O)N3)ncc1C(F)(F)F)S(C)(=O)=O + CO[C@H]1C[C@@H]2CC[C@@H](C)[C@@](O)(O2)C(=O)C(=O)N2CCCC[C@H]2C(=O)O[C@H]([C@H](C)C[C@@H]2CC[C@@H](OCCO)[C@H](OC)C2)CC(=O)[C@H](C)/C=C(\C)[C@@H](O)[C@@H](OC)C(=O)[C@H](C)C[C@H](C)/C=C/C=C/C=C/1C [everolimus] (first compound 0.08 µM, partner dose 0.02 µM) | 391 | 160 | 183 | 624 | 90.8 | 237 | 90.2 | 125 | 117 | 140 | 154 | 100 | 109 | 74.6 | 121 | 82.9 | 157 | 191 | 85.7
CN(c1ncccc1CNc1nc(Nc2ccc3c(c2)CC(=O)N3)ncc1C(F)(F)F)S(C)(=O)=O + C=CCNC1=C2C[C@@H](C)C[C@H](OC)[C@H](O)[C@@H](C)/C=C(\C)[C@H](OC(N)=O)[C@@H](OC)/C=C\C=C(/C)C(=O)NC(=CC1=O)C2=O [Tanespimycin] (first compound 0.08 µM, partner dose 0.002 µM) | 87.1 | 55.5 | 176 | 302 | 51.7 | 84.9 | 90.4 | 67.3 | 83.2 | 103 | 76.6 | 86.3 | 68.4 | 110 | 140 | 336 | 112 | 154 | 71.4
Cn1cnc2c(F)c(Nc3ccc(Br)cc3Cl)c(C(=O)NOCCO)cc21 [selumetinib] + CC(=O)c1c(C)c2cnc(Nc3ccc(N4CCNCC4)cn3)nc2n(C2CCCC2)c1=O [palbociclib] (first compound 0.015 µM, partner dose 0.04 µM) | 1540 | 128 | 106 | 252 | 186 | 44.7 | 106 | 37.4 | 185 | 45.3 | 103 | 109 | 77.4 | 162 | 64.6 | 316 | 213 | 96 | 39.8
NC(=O)c1ccc(N(C(N)=O)c2c(F)cccc2F)nc1-c1ccc(F)cc1F + Cc1nc(Nc2ncc(C(=O)Nc3c(C)cccc3Cl)s2)cc(N2CCN(CCO)CC2)n1 [dasatanib] (first compound 0.4 µM, partner dose 0.004 µM) | 138 | 50.9 | 281 | 166 | 84.7 | 34.3 | 101 | 73.8 | 175 | 236 | 208 | 90.4 | 88.7 | 132 | 114 | 91.3 | 226 | 391 | 142
CC1(C)CCC(c2ccc(Cl)cc2)=C(CN2CCN(c3ccc(C(=O)NS(=O)(=O)c4ccc(N[C@H](CCN5CCOCC5)CSc5ccccc5)c(S(=O)(=O)C(F)(F)F)c4)cc3)CC2)C1 + CN1CCN(c2ccc3nc(-c4c(N)c5c(F)cccc5[nH]c4=O)[nH]c3c2)CC1 [Dovitinib] (first compound 0.4 µM, partner dose 0.1 µM) | 173 | 285 | 255 | 272 | 244 | 529 | 785 | 824 | 218 | 66.9 | 435 | 96.5 | 201 | 181 | 136 | 194 | 65.4 | 442 | 49.3
CN(c1ncccc1CNc1nc(Nc2ccc3c(c2)CC(=O)N3)ncc1C(F)(F)F)S(C)(=O)=O + Nc1ncn([C@H]2C[C@H](O)[C@@H](CO)O2)c(=O)n1 [decitabine] (first compound 0.08 µM, partner dose 0.1 µM) | 121 | 50.9 | 156 | 76.4 | 84.9 | 111 | 120 | 150 | 115 | 66.8 | 48.8 | 50.7 | 125 | 95.9 | 67.7 | 49.9 | 205 | 116 | 48.1
Cn1sc(=O)n(Cc2ccccc2)c1=O + Cn1c(Nc2ccc(C(F)(F)F)cc2)nc2cc(Oc3ccnc(-c4ncc(C(F)(F)F)[nH]4)c3)ccc21 [CHIR265] (first compound 0.4 µM, partner dose 0.08 µM) | 88 | 146 | 130 | 138 | 107 | 111 | 248 | 43.3 | 98.3 | 91.5 | 335 | 70.8 | 103 | 160 | 447 | 35.7 | 663 | 210 | 49.5
Cn1cnc2c(F)c(Nc3ccc(Br)cc3Cl)c(C(=O)NOCCO)cc21 [selumetinib] + COc1ccc(Cl)c(Nc2nc3ccccc3nc2NS(=O)(=O)c2cccc(NC(=O)C(C)(C)N)c2)c1 [XL147] (first compound 0.015 µM, partner dose 0.8 µM) | 485 | 99.1 | 252 | 148 | 112 | 135 | 168 | 185 | 171 | 248 | 114 | 137 | 74.1 | 80.5 | 134 | 86.1 | 92.7 | 34.5 | 148
C[C@@H](N)c1ccc(C(=O)Nc2ccnc3[nH]ccc23)cc1 + C=C(c1ccc(C(=O)O)cc1)c1cc2c(cc1C)C(C)(C)CCC2(C)C [Bexarotene] (first compound 0.4 µM, partner dose 2 µM) | 114 | 53.5 | 141 | 132 | 307 | 113 | 1090 | 99.8 | 104 | 97.2 | 193 | 66.1 | 90.2 | 184 | 46.1 | 64.4 | 300 | 15.1 | 89.5
C[C@@H](N)c1ccc(C(=O)Nc2ccnc3[nH]ccc23)cc1 + O=C(O)[C@@H]1[O][Sb](=[O])([O][Sb]2(=[O])[O][C@H]([C@H](O)CO)[C@H](O)[C@H](C(=O)O)[O]2)[O][C@H]([C@H](O)CO)[C@@H]1O [stibogluconate] (first compound 0.4 µM, partner dose 2 µM) | 51.2 | 117 | 105 | 60.3 | 101 | 52 | 134 | 90 | 83.5 | 148 | 86.4 | 146 | 60.2 | 121 | 39.8 | 64.6 | 46.5 | 148 | 93.3
CCN(CC)CCNC(=O)c1c(C)[nH]c(/C=C2\C(=O)Nc3ccc(F)cc32)c1C [sunitinib] + CCCS(=O)(=O)Nc1ccc(F)c(C(=O)c2c[nH]c3ncc(Cl)cc23)c1F [PLX4720] (first compound 0.4 µM, partner dose 0.08 µM) | 204 | 146 | 138 | 149 | 101 | 35.5 | 95 | 248 | 93.7 | 66.8 | 61.8 | 240 | 74.4 | 107 | 87.4 | 68.7 | 306 | 135 | 38.4

Record cards, as listed above. Order of values: cleaved PARP positive nuclei fraction [1] [%]	cleaved PARP positive nuclei fraction [2] [%]	cleaved PARP positive nuclei fraction [3] [%]	cleaved PARP positive nuclei fraction [4] [%]	cleaved PARP positive nuclei fraction [5] [%]	cleaved PARP positive nuclei fraction [6] [%]	cleaved PARP positive nuclei fraction [7] [%]	cleaved PARP positive nuclei fraction [8] [%]	cleaved PARP positive nuclei fraction [9] [%]	cleaved PARP positive nuclei fraction [10] [%]	cleaved PARP positive nuclei fraction [11] [%]	cleaved PARP positive nuclei fraction [12] [%]	cleaved PARP positive nuclei fraction [13] [%]	cleaved PARP positive nuclei fraction [14] [%]	cleaved PARP positive nuclei fraction [15] [%]	cleaved PARP positive nuclei fraction [16] [%]	cleaved PARP positive nuclei fraction [17] [%]	cleaved PARP positive nuclei fraction [18] [%]	cleaved PARP positive nuclei fraction [19] [%]
CC1(C)CCC(c2ccc(Cl)cc2)=C(CN2CCN(c3ccc(C(=O)NS(=O)(=O)c4ccc(N[C@H](CCN5CCOCC5)CSc5ccccc5)c(S(=O)(=O)C(F)(F)F)c4)cc3)CC2)C1 + CN1CCN(c2ccc3nc(-c4c(N)c5c(F)cccc5[nH]c4=O)[nH]c3c2)CC1 [Dovitinib] (first compound 0.4 µM, partner dose 0.1 µM) in the list: 173	285	255	272	244	529	785	824	218	66.9	435	96.5	201	181	136	194	65.4	442	49.3
Cn1sc(=O)n(Cc2ccccc2)c1=O + COc1ccc(Cl)c(Nc2nc3ccccc3nc2NS(=O)(=O)c2cccc(NC(=O)C(C)(C)N)c2)c1 [XL147] (first compound 0.4 µM, partner dose 0.8 µM) in the list: 71	72	146	102	78.1	225	106	281	157	116	36.3	102	82.8	108	47.2	32	112	56.2	47.4
